The record followed here is patent publication US20230333112A1.

The chains behind the UniProt entries cited, without tags or fusion partners. Residues count along the entry.
UniProt P01850, residues 1-129: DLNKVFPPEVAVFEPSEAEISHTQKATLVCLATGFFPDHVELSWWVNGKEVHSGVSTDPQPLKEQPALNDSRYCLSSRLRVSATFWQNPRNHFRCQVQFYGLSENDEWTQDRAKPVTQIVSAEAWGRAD

No constants are given. Whether binding was seen depends on the method and setting. Some results given as binding are weak or reduced against the parent protein; the word gives no strength.

Assay [1] concerns the target hTRBC1, BIM0444 (human) (UniProt P01850). The assay can be described thus: ELISA (FIG. 7).
The target is the same in assay [2]. The assay can be described thus: ELISA; antibody coated at 1 ug/mL, hTRBC1 BIM0444 titrated, anti-his tag HRP detection.
Assay [3] has the same target. The assay can be described thus: BLI (Octet) (FIG. 8). (Biolayer interferometry detects binding as a change in optical thickness at a sensor tip.)
Assay [4] has the same target. The assay is described as follows: BLI (Octet); hTRBC1 BIM0444 loaded on Protein A biosensors, Fab 50 nM to 0.78 nM in solution.

B1: JOVI.1 (murine anti-TRBC1 antibody, bivalent mAb) (antibody, V domains shown)
VH: EVRLQQSGPDLIKPGASVKMSCKASGYTFTGYVMHWVKQRPGQGLEWIGFINPYNDDIQSNERFRGKATLTSDKSSTTAYMELSSLTSEDSAVYYCARGAGYNFDGAYRFFDFWGQGTTLTVSS
VL: DVVMTQSPLSLPVSLGDQASISCRSSQRLVHSNGNTYLHWYLQKPGQSPKLLIYRVSNRFPGVPDRFSGSGSGTDFTLKISRVEAEDLGIYFCSQSTHVPYTFGGGTKLEIK
As to B1, the binding result in assay [1] and in assay [2] was “binds” throughout.

B2: BIM0460 (humanized JOVI.1 Fab) (Fab, V domains shown)
VH: QVQLVQSGAEVKKPGSSVKVSCKASGYTFTGYVMHWVRQAPGQGLEWMGFINPYNDDIQSNERFRGRVTITSDKSTTTAYMELSSLRSEDTAVYYCARGAGYNFDGAYRFFDFWGQGTLVTVSS
VL: DVVMTQSPLSLPVTLGQPASISCRSSQRLVHSNGNTYLHWYQQRPGQSPRLLIYRVSNRFPGVPDRFSGSGSGTDFTLKISRVEAEDVGVYFCSQSTHVPYTFGGGTKVEIK
On to B2, for which the binding result in assay [3] and in assay [4] was “binds” throughout.

B3: BIM0446 (JOVI.1 Fab) (Fab, V domains shown)
VH: EVRLQQSGPDLIKPGASVKMSCKASGYTFTGYVMHWVKQRPGQGLEWIGFINPYNDDIQSNERFRGKATLTSDKSSTTAYMELSSLTSEDSAVYYCARGAGYNFDGAYRFFDFWGQGTTLTVSS
VL: DVVMTQSPLSLPVSLGDQASISCRSSQRLVHSNGNTYLHWYLQKPGQSPKLLIYRVSNRFPGVPDRFSGSGSGTDFTLKISRVEAEDLGIYFCSQSTHVPYTFGGGTKLEIK
As to B3, the binding entry in assay [3] and in assay [4] was “binds” in each case.
